In US20200376029A1:
These are yes or no findings as the source states them, for the method shown. Some binding calls cover weakened binding; strength is not graded here.

Legend:
[1] = biological target: T1, human glypican 1 (hGPC1) (human) (UniProt P35052); experiment: flow cytometry on LK2-hGPC1 cells against LK2-mock, with isotype control
T1 sequence (looked up): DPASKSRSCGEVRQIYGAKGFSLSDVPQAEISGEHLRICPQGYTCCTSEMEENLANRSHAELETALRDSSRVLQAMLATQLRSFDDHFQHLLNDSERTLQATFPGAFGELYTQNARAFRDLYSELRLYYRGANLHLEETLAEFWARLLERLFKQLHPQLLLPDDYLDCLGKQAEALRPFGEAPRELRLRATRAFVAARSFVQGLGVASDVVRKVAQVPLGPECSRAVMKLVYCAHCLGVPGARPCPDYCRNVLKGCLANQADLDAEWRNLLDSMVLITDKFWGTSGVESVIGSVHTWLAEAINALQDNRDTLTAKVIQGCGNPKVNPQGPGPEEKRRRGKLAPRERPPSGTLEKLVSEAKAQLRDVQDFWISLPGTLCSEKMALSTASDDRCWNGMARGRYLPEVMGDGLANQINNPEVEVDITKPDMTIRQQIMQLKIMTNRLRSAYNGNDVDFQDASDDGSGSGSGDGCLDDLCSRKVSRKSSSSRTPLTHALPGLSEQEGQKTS

[2] = biological target: T1, human glypican 1 (hGPC1) (human); experiment: immunostaining of frozen human tissue sections
[3] = biological target: T2, mouse glypican 1 (mGPC1) (mouse) (UniProt Q9QZF2); experiment: immunostaining of MC38-mGPC1 cells and mouse tissues
T2 sequence (looked up): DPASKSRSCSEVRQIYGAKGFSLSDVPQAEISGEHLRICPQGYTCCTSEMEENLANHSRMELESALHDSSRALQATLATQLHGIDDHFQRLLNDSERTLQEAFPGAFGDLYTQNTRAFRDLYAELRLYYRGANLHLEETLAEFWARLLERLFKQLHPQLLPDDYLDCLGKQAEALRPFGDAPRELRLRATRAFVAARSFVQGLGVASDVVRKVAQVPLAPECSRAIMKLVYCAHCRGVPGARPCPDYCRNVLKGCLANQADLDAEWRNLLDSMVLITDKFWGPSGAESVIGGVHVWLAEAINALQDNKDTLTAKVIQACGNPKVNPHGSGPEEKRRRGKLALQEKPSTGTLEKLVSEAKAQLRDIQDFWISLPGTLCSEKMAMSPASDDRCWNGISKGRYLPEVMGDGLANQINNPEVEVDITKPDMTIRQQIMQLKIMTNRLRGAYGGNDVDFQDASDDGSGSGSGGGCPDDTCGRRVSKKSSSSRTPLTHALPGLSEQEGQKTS

[4] = biological target: T2, mouse glypican 1 (mGPC1) (mouse); experiment: flow cytometry on MC38-mGPC1 and MCA205-mGPC1 cells, with isotype control

binding [1]: binds | binding [2]: binds | binding [3]: binds | binding [4]: binds
B1: anti-GPC1 monoclonal antibody (clone 1-12) (antibody, V domains shown)
VH: AVTLDESGGGLQTPGRALSLVCKASGFTFSRYAMYWVRQAPGKGLEFVAGIGNTGRYTGYGSAVKGRATISRDSGQSTVRLQLNNLRAEDTGNYYCAKSVSPYCCDAADIDAWGHGTEVIVSS
VL: ASTQPSSVSANPGETVKITCSGGSSGYAYGWYQQKSPGSAPVTLLYSNNNRPSDIPSRFSGSKSGSTATLTITGVQAEDEAVYFCGSVDSSSYAGIFGAGTTLTVL
